Data from paper PMC3841123.
These are yes or no findings as the source states them, for the method shown. Binding seen in cells or lysates may run through a third protein. Binding calls can cover weak binding; strength is not graded here.

Protein sequences, listed by entry. Tags and fused reporters are not part of them. Lines headed by an entry give the natural chain unless they say otherwise; changes in a name come on top.
UniProt Q99418: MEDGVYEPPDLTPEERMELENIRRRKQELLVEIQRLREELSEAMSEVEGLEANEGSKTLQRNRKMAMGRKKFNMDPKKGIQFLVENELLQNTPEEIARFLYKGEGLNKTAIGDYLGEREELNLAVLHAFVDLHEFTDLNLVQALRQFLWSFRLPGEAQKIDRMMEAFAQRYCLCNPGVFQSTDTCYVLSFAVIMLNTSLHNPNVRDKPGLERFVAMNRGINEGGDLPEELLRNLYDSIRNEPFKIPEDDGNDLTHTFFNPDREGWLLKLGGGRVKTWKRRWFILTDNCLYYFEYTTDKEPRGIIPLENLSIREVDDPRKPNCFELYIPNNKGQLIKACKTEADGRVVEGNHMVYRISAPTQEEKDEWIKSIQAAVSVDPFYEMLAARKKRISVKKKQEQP

B1: CNK3/IPCEF (protein, UniProt Q8WWN9 1-437)
chain: MTSYMAIDGSALVPLRQKPRRKTQGFLTMSRRRISCKDLGHADCQGWLYKKKEKGSFLSNKWKKFWVILKGSSLYWYSNQMAEKADGFVNLPDFTVERASECKKKHAFKISHPQIKTFYFAAENVQEMNVWLNKLGSAVIHQESTTKDEECYSESEQEDPEIAAETPPPPHASQTQSLTAQQASSSSPSLSGTSYSFSSLENTVKTPSSFPSSLSKERQSLPDTVNSLSAAEDEGQPITFAVQVHSPVPSEAGIHKALENSFVTSESGFLNSLSSDDTSSLSSNHDHLTVPDKPAGSKIMDKEETKVSEDDEMEKLYKSLEQASLSPLGDRRPSTKKELRKSFVKRCKNPSINEKLHKIRTLNSTLKCKEHDLAMINQLLDDPKLTARKYREWKVMNTLLIQDIYQQQRASPAPDDTDDTPQELKKSPSSPSVENSI
B2: GRASP (protein, UniProt Q7Z6J2 1-395)
chain: MTLRRLRKLQQKEEAAATPDPAARTPDSEVAPAAPVPTPGPPAAAATPGPPADELYAALEDYHPAELYRALAVSGGTLPRRKGSGFRWKNLSQSPEQQRKVLTLEKEDNQTFGFEIQTYGLHHREEQRVEMVTFVCRVHESSPAQLAGLTPGDTIASVNGLNVEGIRHREIVDIIKASGNVLRLETLYGTSIRKAELEARLQYLKQTLYEKWGEYRSLMVQEQRLVHGLVVKDPSIYDTLESVRSCLYGAGLLPGSLPFGPLLAVPGRPRGGARRARGDADDAVYHTCFFGDSEPPALPPPPPPARAFGPGPAETPAVGPGPGPRAALSRSASVRCAGPGGGGGGGAPGALWTEAREQALCGPGLRKTKYRSFRRRLLKFIPGLNRSLEEEESQL

Target: GST-coiled-coil (fusion of GST to the cytohesin 2 coiled-coil domain) (UniProt Q99418)
Assay: pull-down; GST or GST-coiled-coil on glutathione beads, incubated with cleared lysate of MDCK cells infected with adenoviruses at 4°C; lysis and wash buffer 50 mM Tris pH 7.5, 100 mM NaCl, 2 mM MgCl2, 1% NP-40, 10% glycerol; bound proteins detected by anti-myc, anti-HA and anti-GFP Western blots; only the target purified

Row | Binder | binding
1 | B1 | binds
2 | B2 | binds
